Assay results from PubChem BioAssay AID2685 (National Center for Advancing Translational Sciences (NCATS), 2010).
This is one part of the list. The main result of the screen is listed elsewhere. These columns were measured beside it and carry no call. Compounds called inactive in the main read-out are mostly missing here. Potencies come from curve fits of mixed quality, noted in brackets.

Assay: qHTS Assay for Lipid Storage Modulators in Drosophila S3 Cells;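 on cell number change: cells counted by Cell Tracker Red CMTPX staining in the red channel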
Settings: BODIPY lipid droplet fluorescence, 18-24 h; for cell number change: measured here: cell count max response, cells fed with added oleic acid
How it was run: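 Drosophila S3 cells got compounds at several concentrations plus oleic acid (400 uM solution). Laser-scanning cytometry with 488 nm excitation read lipid droplets at 500-530 nm and cells at 575-640 nm. Percent activity was relative to 20 uM Triacsin C.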

[1] = measured here: lipid fluorescence (Fed channel) AC50, cells fed with added oleic acid
[2] = measured here: cell number channel AC50, cells fed with added oleic acid

Compound	cell number change [%]	AC50 [1]	AC50 [2]
Cn1c(COc2ccc3ccccc3c2)nnc1SCC(=O)OC1CCCCC1	-24.6	0.651 µM [falling, full curve, poor fit]	–
CC(C)OCCCNC(=O)c1cc2c(s1)CS(=O)(=O)C2	-71.4	23.1 µM [falling, partial curve, poor fit]	3.66 µM [falling, partial curve, poor fit]
COc1ccccc1N1CCN(/N=C\c2ccccc2)CC1	-5.47	20.6 µM [rising, single point]	–
CC(=C/c1ccco1)/C=N/N1CCN(c2ccccc2)CC1	4.84	29.1 µM [rising, single point]	–
N[C@@H](Cc1ccc(O)cc1)c1nnc([C@H](CCC(=O)O)NC(=O)C2CCNCC2)o1	-0.841	0.651 µM [falling, single point]	–
O=C1CS(=O)CN1c1ccc(Oc2ccccc2)cc1 (centres undefined)	-40.4	–	29.1 µM [falling, single point]
Cc1cc(NC(=O)CCC(=O)N(Cc2cccs2)C(C(=O)NC2CCCC2)c2ccncc2)no1 (centres undefined)	-15.9	11.6 µM [rising, partial curve]	–
FC(F)(F)c1cccc(CNC2c3ccccc3-c3ccccc32)c1	–	0.411 µM [rising, partial curve, poor fit]	–
CCOC(=O)N1CCC(NC(=O)CCc2c(C)nc3c(c(C)nn3C(C)(C)C)c2C)CC1	-73.2	23.1 µM [falling, single point]	–
CCOc1ccccc1C(=O)Nc1cc(C)ccc1NC(=O)c1ccco1	4.91	–	–
Cc1ccc([N+](=O)[O-])cc1S(=O)(=O)NCCc1cn2ccccc2n1	3.09	0.0082 µM [falling, full curve, poor fit]	–
CCOC(=O)N1CCc2c(sc3c2c(=O)n(Cc2ccccc2)c(=O)n3Cc2ccccc2F)C1	-4.4	–	–
COc1cccc(N2CCN(C(=O)c3cccc(N4C(=O)NC5CC4(C)Oc4c(OC)cccc45)c3)CC2)c1 (centres undefined)	-9.44	6.51 µM [rising, partial curve, poor fit]	–
O=C(O)Cn1c(Cc2ccccc2)nc2ccccc21	15.8	–	–
CCOC(=O)c1c(C)n(S(=O)(=O)c2ccc(C)cc2)c2ccc(O)c(C(=O)O)c12	13.7	18.4 µM [rising, partial curve]	–
O=C(COC(=O)c1ccc(O)cc1)Nc1ncc(Cl)cc1Cl	53.9	–	–
O=C1CN(C(=O)/C=C/c2ccccc2F)c2ccccc2N1	101	–	–
C[C@H](NC(=O)c1ccccc1Cl)C(=O)NCc1cccs1	40.2	–	3.26 µM [rising, partial curve, poor fit]
CCOc1ccc(CCNC(=O)CN2C(=O)COc3ccc(S(=O)(=O)N4CCOCC4)cc32)cc1	-2.47	0.206 µM [rising, full curve, poor fit]	–
CCOc1ccccc1C1CC(c2ccc(F)cc2)Nc2nc(N)nn21 (centres undefined)	-16	0.103 µM [rising, single point]	3.26 µM [falling, partial curve]

Compound	cell number change [%]	AC50 [1]	AC50 [2]
O=C(Nc1cccnc1)c1ccc(NS(=O)(=O)c2cccc([N+](=O)[O-])c2)cc1	-24.3	0.00731 µM [falling, full curve, poor fit]	0.00461 µM [falling, full curve, poor fit]
CSCCC(NS(=O)(=O)c1ccc(C)cc1)C(=O)N1CCN(C(c2ccccc2)c2ccccc2)CC1 (centres undefined)	37.6	8.2 µM [rising, partial curve]	6.51 µM [rising, full curve, poor fit]
CC(C)(C)n1nnnc1CN1CCN2CCCC2C1 (centres undefined)	-66.3	1.64 µM [falling, partial curve]	5.8 µM [falling, full curve]
CCC(c1nnc(SCC(=O)NNC(=O)c2ccccc2)n1Cc1ccccc1)N(C)C (centres undefined)	13.5	–	–
COc1cc(NC(=O)c2cccs2)c(OC)cc1NC(=O)CCC(=O)Nc1ccc2ncccc2c1	-67.2	–	29.1 µM [falling, single point]
COc1ccc(NC(=S)NC2CCCCC2)cn1	7.98	0.116 µM [falling, full curve, poor fit]	–
COc1ccc(NC(=O)CSc2nc3ccncc3[nH]2)c(OC)c1	–	29.1 µM [rising, single point]	–
COC(CNC(=O)CN1CCN(Cc2ccccc2F)C1=O)OC	16.3	29.1 µM [rising, single point]	–
Cc1ccc(OCC(=O)Nc2cc(NC(=O)COc3ccc(C)cc3)cc(C(=O)O)c2)cc1	-12.4	–	–
O=C1c2ccccc2C(=O)N1CCCc1cn(C[C@H]2CC[C@@H]([C@@H]3CC[C@H](Cn4cc(CCCN5C(=O)c6ccccc6C5=O)nn4)O3)O2)nn1	13.6	–	–
N#Cc1ccc(-c2ccccc2)nc1Sc1ccc(F)cc1	109	–	–
Cn1c(N)c(C(=O)CSc2nn(-c3ccc(F)cc3)c(=S)s2)c(=O)n(C)c1=O	-37.7	29.1 µM [falling, single point]	29.1 µM [falling, single point]
O=c1cc(-c2ccccc2)n(S(=O)(=O)c2ccccc2)o1	15.5	29.1 µM [falling, single point]	–
COc1cc(/C=N\n2nnnc2N)ccc1OCc1ccc(F)cc1	-38.7	7.31 µM [falling, partial curve]	4.61 µM [falling, full curve]
CCN(C(=O)COC(=O)/C=C/c1cnc2ccccc2n1)c1ccccc1	7.28	–	–
COCCCNC(=O)CC1Oc2ccccc2NC1=O (centres undefined)	-2.83	7.31 µM [falling, partial curve]	–
O=C(Nc1ccc2ccccc2c1)c1ccc(NS(=O)(=O)c2ccc(Br)s2)cc1	1.49	–	–
Cc1cc(C)c2nc(NC(=O)C3CCCO3)sc2c1 (centres undefined)	–	7.31 µM [rising, partial curve]	2.06 µM [rising, partial curve]
CCc1nn(C(C)C(=O)N2CCN(Cc3ccccc3)CC2)c(=O)c2cc3occc3n12 (centres undefined)	-26.8	29.1 µM [rising, single point]	–
O=C(CSc1nnc(-c2cccs2)n1-c1ccccc1)c1ccc2c(c1)OCCO2	5.03	3.26 µM [rising, single point]	–

Entries of single compounds, quoted from the list. Order of values: cell number change [%] | AC50 [1] | AC50 [2]
`CCOC(=O)N1CCC(NC(=O)CCc2c(C)nc3c(c(C)nn3C(C)(C)C)c2C)CC1` is entered as -73.2 | 23.1 µM [falling, single point] | –
`Cn1c(N)c(C(=O)CSc2nn(-c3ccc(F)cc3)c(=S)s2)c(=O)n(C)c1=O` is entered as -37.7 | 29.1 µM [falling, single point] | 29.1 µM [falling, single point]
`N[C@@H](Cc1ccc(O)cc1)c1nnc([C@H](CCC(=O)O)NC(=O)C2CCNCC2)o1` is entered as -0.841 | 0.651 µM [falling, single point] | –
`Cn1c(COc2ccc3ccccc3c2)nnc1SCC(=O)OC1CCCCC1` is entered as -24.6 | 0.651 µM [falling, full curve, poor fit] | –

Continued:

Compound	cell number change [%]	AC50 [1]	AC50 [2]
Cc1n[nH]c(=O)c2c(NC(=O)CSc3nnnn3-c3ccccc3)oc(C)c12	65.7	29.1 µM [rising, single point]	29.1 µM [rising, single point]
O=C(Nc1ccccc1)C1C2CCC3C(CCC21)C3(Cl)Cl (centres undefined)	5.34	1.84 µM [falling, single point]	–
CN(C(=O)COc1ccccc1)c1nc(-c2ccc(F)cc2)cs1	-46.8	25.9 µM [falling, partial curve, poor fit]	–
CCn1ccnc1C(O)c1cccc(OC)c1OC (centres undefined)	37.5	29.1 µM [rising, single point]	0.206 µM [rising, full curve, poor fit]
COCCNS(=O)(=O)c1ccc(OCC(=O)N2CCc3ccccc3C2)c(Cl)c1	-30.7	–	–
N=c1c(C(=O)NCc2ccco2)cc2c(=O)n3ccccc3nc2n1CCc1ccccc1	-18.3	4.11 µM [rising, partial curve]	–
CNC(=O)c1ccsc1NC(=O)c1ccc(Cl)s1	-4.73	13 µM [rising, partial curve]	–
Nc1cccc2c1C(=O)N(C(=O)c1ccc(S(=O)(=O)N3CCCCCC3)cc1)C2=O	17	0.103 µM [falling, full curve, poor fit]	–
CCn1c(SCC(=O)OC)nnc1-c1c[nH]c2ccccc12	-20.9	0.164 µM [falling, full curve, poor fit]	–
CC(=O)c1ccc(N(CC(=O)NCc2ccc3c(c2)OCO3)C(=O)c2csnn2)cc1	27.8	10.3 µM [rising, partial curve, poor fit]	–
CCCn1c(SCC(=O)N2CCCCC2)nnc1-c1ccco1	16.4	29.1 µM [rising, single point]	–
Cc1ccc(OCC(=O)N2CCc3ccccc32)c([N+](=O)[O-])n1	72.4	–	25.9 µM [rising, single point]
CCOC(=O)c1cnn(-c2nc3sc4c(c3c(=O)[nH]2)CCCC4)c1N	-8.59	0.82 µM [rising, single point]	–
COc1cc2c(cc1NC(=O)CN1CCN(S(=O)(=O)c3ccc(C)cc3)CC1)oc1ccccc12	–	1.64 µM [falling, full curve, poor fit]	0.13 µM [falling, full curve, poor fit]
Brc1ccc(OCc2nnc(SCC3CCCCC3)o2)cc1	19.8	0.0651 µM [rising, full curve]	–
CC(C)c1ccc(C2(O)C(=O)Nc3cc(Br)ccc32)c(O)c1 (centres undefined)	-61	29.1 µM [falling, single point]	29.1 µM [falling, single point]
O=C(NC12CC3CC(CC(C3)C1)C2)C1CCCN1C(=O)NC1CCCCC1 (centres undefined)	-99.3	23.1 µM [falling, partial curve, poor fit]	25.9 µM [falling, partial curve, poor fit]
CCC1(C)N=C(c2ccc3c(c2)OCO3)CC(c2ccccc2O)N1 (centres undefined)	-60.3	–	–
C[C@H]1CCC(=O)N([C@H](CSc2ccccc2)Cc2ccccc2)CC1	11.7	32.6 µM [falling, single point]	–
